Reference: patent US12023388B2, “Detection and treatment of caries and microcavities with nanoparticles” (THE REGENTS OF THE UNIVERSITY OF MICHIGAN, priority 2015, dated 2024)
Structures can show the parent of a compound that is named as a salt. For at least one compound, name, drawing or mass did not settle the structure.

Assay: Cavity diagnosis testing under dental curing lamp with ImageJ image analysis
Parameters: species or system human

In the case of `O=C1OC2(c3ccc(O)cc3Oc3cc(O)ccc32)c2ccccc21` [fluorescein, fluorescein sodium salt], the “retention in carious lesions on rinsing in DI water” value (controls: rinse times of more than 20 seconds, cationic StNP: up to five minutes) is reported as “fully washed away” and the “illumination of carious lesions (statistical analysis of percent intensity difference)” value (versus untreated teeth / background tooth) is reported as “did not illuminate carious lesions”.
